Source: article PMC6283856 (2018)
These are yes or no findings as the source states them, for the method shown. In cells and extracts the contact can be indirect. Some binding calls cover weakened binding; strength is not graded here.

Molecular target: T1, TNFR-associated factor 2 (TRAF2) (UniProt Q12933)
T1 sequence: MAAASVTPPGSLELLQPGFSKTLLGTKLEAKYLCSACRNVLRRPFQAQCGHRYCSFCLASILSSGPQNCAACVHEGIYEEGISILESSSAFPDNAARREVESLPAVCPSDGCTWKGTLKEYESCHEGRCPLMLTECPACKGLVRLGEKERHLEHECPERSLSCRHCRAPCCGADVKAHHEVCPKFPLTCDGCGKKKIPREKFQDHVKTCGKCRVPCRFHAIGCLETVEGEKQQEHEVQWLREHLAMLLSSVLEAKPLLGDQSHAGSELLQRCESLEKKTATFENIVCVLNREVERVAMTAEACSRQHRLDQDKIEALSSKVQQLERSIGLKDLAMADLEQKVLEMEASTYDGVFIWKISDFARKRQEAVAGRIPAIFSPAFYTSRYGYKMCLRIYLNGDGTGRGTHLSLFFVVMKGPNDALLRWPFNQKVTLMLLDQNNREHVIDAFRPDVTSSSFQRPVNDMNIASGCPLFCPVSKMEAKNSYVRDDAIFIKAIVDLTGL
Test: co-IP; proteins coexpressed in HEK293 cells; immunoprecipitation and immunoblotting with the antibodies indicated; for TRAF2 with TRAF3 also with co-transfected USP17

B1: ubiquitin-specific peptidase 17 (USP17), wild type (enzyme, UniProt Q6R6M4 1-530)
chain: MEDDSLYLGGEWQFNHFSKLTSSRPDAAFAEIQRTSLPEKSPLSSEARVDLCDDLAPVARQLAPRKKLPLSSRRPAAVGAGLQNMGNTCYENASLQCLTYTPPLANYMLSREHSQTCQRPKCCMLCTMQAHITWALHSPGHVIQPSQALAAGFHRGKQEDAHEFLMFTVDAMKKACLPGHKQVDHHSKDTTLIHQIFGGCWRSQIKCLHCHGISDTFDPYLDIALDIQAAQSVKQALEQLVKPEELNGENAYHCGLCLQRAPASKTLTLHTSAKVLILVLKRFSDVTGNKLAKNVQYPECLDMQPYMSQQNTGPLVYVLYAVLVHAGWSCHDGHYFSYVKAQEGQWYKMDDAKVTACSITSVLSQQAYVLFYIQKSEWERHSESVSRGREPRALGAEDTDRRATQGELKRDHPCLQAPELDERLVERATQESTLDHWKFPQEQNKTKPEFNVRKVEGTLPPNVLVIHQSKYKCGMKNHHPEQQSSLLNLSSTTRTDQESVNTGTLASLQGRTRRSKGKNKHSKRALLVCQ
binding: binds
